Values from PubChem BioAssay AID1053208 (Peter MacCallum Cancer Centre, 2014).
The deposit covers about 17,000 reagents; below is a part drawn at random. 788 of them (4.7%) were called active. 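Calls rest on z-score classes alone; an extra cut-off of viability at most 70% of control was not applied to them.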 The numbers tell different reagents against one gene apart. A reagent listed more than once was tested more than once; the source does not tell the runs apart. Further read-outs or replicates are left out here. No sequences are given here.

Aim: 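Find knock-downs that sensitise mouse osteosarcoma cells to doxorubicin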 (primary screen)
Cell system: mouse osteosarcoma cells, early-passage culture from an engineered mouse model of fibroblastic bone tumour
Knock-down reagent: siRNA pool against mouse genes, 40 nM
Timing: about 120 h (48 h before drug, then 72 h with drug)
Treatment: doxorubicin 100 nM for 72 h, roughly 30-40% inhibitory dose
Read-out: 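Viability read as ATP luminescence after 72 h of 100 nM doxorubicin or none, duplicate wells averaged, scaled to non-targeting siRNA, then expressed as robust z-scores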
Direction: viability z-score with doxorubicin: higher = more viable cells under doxorubicin; viability z-score without drug: higher = more viable cells with knock-down alone
Active means: 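a pool counts as active when its viability z-score with doxorubicin is -2 or below and its z-score without drug lies between -2 and 2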

Target gene	reagent	combined z-score class	viability z-score with doxorubicin	viability z-score without drug	Call
Ei24	1	no change with or without drug	-1.12	-0.17	inactive
Dnajb6	1	no change with or without drug	-1.24	0.84	inactive
Nup62	1	low cell count with and without drug	-5.17	-7.25	inactive
Pik3cb	1	no change with or without drug	1.01	0.17	inactive
Pik3cb	1	high cell count with doxorubicin only	2.14	-0.17	inactive
Dhx15	1	no change with or without drug	1.12	1.18	inactive
Arl6	1	no change with or without drug	-1.01	-0.51	inactive
Or52b1	1	no change with or without drug	-1.46	-1.85	inactive
Vmn1r35	1	no change with or without drug	-0.67	-0.17	inactive
Rpsa	1	no change with or without drug	-1.35	0.17	inactive
Glra3	1	no change with or without drug	-0.22	-1.18	inactive
Flvcr2	1	no change with or without drug	0.11	-0.51	inactive
Abra	1	no change with or without drug	1.57	-0.17	inactive
Erg	1	low cell count with doxorubicin only	-2.25	-1.35	active
Pkn3	1	no change with or without drug	-0.67	-0.17	inactive
Atp1b4	1	no change with or without drug	0	-0.34	inactive
Ccnh	1	no change with or without drug	0.79	0.84	inactive
Cmtm4	1	no change with or without drug	-0.67	-0.84	inactive
Or56a3b	1	no change with or without drug	0	0	inactive
Zmat5	1	no change with or without drug	0	-0.84	inactive
Or52r1	1	no change with or without drug	-1.01	-0.34	inactive
D030022P06RIK	1	no change with or without drug	0.45	0	inactive
Or52z1	1	no change with or without drug	0.22	0	inactive
Mill2	1	no change with or without drug	0.67	-1.35	inactive
Mtmr14	1	no change with or without drug	0.67	1.85	inactive
Atp6v1g1	1	no change with or without drug	1.24	1.52	inactive
Irgm1	1	no change with or without drug	-1.35	0.51	inactive
Meox1	1	no change with or without drug	-0.22	1.18	inactive
Gabpb1	1	no change with or without drug	-1.57	-0.17	inactive
Afm	1	no change with or without drug	0.67	0.51	inactive
Zc3h12a	1	no change with or without drug	0.11	0.34	inactive
Jpt2	1	no change with or without drug	0.45	1.18	inactive
Sectm1b	1	no change with or without drug	-0.34	0.51	inactive
Tcp10a	1	no change with or without drug	-0.45	0	inactive
Tcp10a	2	no change with or without drug	-0.22	1.01	inactive
Gng11	1	high cell count without drug only	0.11	2.02	inactive
Gtf2h3	1	no change with or without drug	-1.01	-0.17	inactive
Med4	1	no change with or without drug	1.12	0.17	inactive
Abraxas2	1	no change with or without drug	-0.9	-0.67	inactive
Rap1gds1	1	no change with or without drug	0.11	0.34	inactive
Ubr2	1	no change with or without drug	0.9	1.52	inactive
Eno4	1	high cell count with doxorubicin only	2.02	0.84	inactive
Slc24a4	1	no change with or without drug	-1.57	0.17	inactive
Sp8	1	no change with or without drug	-1.46	-1.52	inactive
Or4k77	1	no change with or without drug	-1.57	-1.35	inactive
Mxi1	1	no change with or without drug	0.34	0.84	inactive
Zc3hav1	1	no change with or without drug	0.22	0.17	inactive
Or6k2	1	no change with or without drug	-1.35	-1.18	inactive
Ecrg4	1	no change with or without drug	0.22	1.69	inactive
Srrm1	1	no change with or without drug	0.79	0	inactive
